Source: the supplement of paper PMC10849652
This is one part of the list.

The chains behind the UniProt entries cited, without tags or fusion partners. Where a name states a change or a piece, a line headed by the entry shows the natural chain unless it says otherwise.
UniProt Q9UKK6: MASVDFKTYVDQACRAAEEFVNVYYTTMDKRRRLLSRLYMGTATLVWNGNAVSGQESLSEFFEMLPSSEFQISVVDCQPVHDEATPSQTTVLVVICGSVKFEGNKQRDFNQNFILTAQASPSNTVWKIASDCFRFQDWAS
UniProt Q9NTK5, whole entry, looked up: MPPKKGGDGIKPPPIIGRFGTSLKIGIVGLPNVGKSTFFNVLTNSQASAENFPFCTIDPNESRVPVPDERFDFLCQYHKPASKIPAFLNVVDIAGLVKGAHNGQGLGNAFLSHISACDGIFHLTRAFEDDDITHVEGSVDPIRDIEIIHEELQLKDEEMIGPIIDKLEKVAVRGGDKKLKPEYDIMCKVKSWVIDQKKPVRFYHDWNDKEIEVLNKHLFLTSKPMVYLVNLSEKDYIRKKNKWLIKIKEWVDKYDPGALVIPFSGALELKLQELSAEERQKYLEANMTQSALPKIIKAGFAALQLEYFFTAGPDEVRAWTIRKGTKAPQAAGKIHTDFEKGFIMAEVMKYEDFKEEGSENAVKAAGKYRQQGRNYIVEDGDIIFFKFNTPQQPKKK
UniProt Q99497, whole entry, looked up: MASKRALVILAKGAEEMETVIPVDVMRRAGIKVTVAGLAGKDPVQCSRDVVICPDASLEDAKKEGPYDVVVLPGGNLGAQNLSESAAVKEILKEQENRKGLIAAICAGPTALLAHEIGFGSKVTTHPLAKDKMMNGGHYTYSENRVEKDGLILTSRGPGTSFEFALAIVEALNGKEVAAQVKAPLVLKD
UniProt Q9BW27: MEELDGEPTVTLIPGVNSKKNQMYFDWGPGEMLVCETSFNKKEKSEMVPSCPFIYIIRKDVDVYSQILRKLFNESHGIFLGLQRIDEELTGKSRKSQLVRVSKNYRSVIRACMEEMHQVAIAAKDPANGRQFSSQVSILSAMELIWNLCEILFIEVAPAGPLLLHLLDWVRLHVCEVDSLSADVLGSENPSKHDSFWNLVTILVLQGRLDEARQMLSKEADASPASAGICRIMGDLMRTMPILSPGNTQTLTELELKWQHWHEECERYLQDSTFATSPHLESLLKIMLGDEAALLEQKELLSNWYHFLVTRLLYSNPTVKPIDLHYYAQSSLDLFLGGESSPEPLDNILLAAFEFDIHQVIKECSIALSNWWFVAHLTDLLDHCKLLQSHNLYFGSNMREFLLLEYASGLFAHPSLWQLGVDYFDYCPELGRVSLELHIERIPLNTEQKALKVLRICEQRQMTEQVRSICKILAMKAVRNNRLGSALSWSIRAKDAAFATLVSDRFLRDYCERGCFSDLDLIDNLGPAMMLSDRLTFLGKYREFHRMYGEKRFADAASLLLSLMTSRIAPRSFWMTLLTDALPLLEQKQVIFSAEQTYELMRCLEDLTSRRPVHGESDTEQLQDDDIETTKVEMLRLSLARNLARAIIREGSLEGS
UniProt Q9H4L5: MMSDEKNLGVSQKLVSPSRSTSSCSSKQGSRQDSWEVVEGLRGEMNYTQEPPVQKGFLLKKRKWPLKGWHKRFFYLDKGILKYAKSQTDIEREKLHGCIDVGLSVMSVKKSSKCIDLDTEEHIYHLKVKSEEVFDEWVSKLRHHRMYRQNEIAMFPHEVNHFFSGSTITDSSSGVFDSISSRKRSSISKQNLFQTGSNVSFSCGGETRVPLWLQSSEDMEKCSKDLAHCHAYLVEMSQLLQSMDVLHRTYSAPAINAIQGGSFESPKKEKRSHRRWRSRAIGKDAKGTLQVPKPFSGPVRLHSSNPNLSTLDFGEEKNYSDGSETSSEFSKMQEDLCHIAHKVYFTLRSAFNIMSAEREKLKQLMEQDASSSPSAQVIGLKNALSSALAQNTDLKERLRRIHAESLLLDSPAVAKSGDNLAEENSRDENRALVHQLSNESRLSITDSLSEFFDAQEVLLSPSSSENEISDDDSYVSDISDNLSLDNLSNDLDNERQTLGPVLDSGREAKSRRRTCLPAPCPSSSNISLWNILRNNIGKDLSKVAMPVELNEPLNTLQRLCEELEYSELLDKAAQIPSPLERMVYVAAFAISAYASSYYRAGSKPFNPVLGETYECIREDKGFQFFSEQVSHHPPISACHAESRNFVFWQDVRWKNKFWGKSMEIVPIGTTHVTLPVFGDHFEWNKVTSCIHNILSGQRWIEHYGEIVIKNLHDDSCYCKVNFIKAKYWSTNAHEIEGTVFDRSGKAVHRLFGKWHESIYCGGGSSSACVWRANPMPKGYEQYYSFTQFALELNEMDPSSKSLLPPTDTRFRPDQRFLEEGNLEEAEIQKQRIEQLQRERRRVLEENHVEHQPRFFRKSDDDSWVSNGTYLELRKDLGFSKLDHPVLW
UniProt Q13310, whole entry, looked up: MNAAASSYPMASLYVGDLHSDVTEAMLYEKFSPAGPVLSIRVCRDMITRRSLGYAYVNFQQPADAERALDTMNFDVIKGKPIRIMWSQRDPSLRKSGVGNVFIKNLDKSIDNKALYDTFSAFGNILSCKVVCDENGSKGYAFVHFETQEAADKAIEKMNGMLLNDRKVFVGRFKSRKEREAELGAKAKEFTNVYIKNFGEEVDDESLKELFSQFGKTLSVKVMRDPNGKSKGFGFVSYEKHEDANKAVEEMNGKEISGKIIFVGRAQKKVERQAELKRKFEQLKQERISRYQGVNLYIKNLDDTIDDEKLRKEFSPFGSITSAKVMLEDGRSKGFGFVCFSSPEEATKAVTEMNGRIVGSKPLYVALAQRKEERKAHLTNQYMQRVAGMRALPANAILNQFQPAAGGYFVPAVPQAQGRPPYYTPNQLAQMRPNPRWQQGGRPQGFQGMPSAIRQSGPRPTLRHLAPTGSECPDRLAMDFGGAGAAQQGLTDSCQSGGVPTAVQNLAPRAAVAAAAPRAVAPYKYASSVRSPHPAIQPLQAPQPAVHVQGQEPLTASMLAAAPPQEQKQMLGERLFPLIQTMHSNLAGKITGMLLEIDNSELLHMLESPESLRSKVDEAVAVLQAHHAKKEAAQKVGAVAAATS
UniProt Q92621: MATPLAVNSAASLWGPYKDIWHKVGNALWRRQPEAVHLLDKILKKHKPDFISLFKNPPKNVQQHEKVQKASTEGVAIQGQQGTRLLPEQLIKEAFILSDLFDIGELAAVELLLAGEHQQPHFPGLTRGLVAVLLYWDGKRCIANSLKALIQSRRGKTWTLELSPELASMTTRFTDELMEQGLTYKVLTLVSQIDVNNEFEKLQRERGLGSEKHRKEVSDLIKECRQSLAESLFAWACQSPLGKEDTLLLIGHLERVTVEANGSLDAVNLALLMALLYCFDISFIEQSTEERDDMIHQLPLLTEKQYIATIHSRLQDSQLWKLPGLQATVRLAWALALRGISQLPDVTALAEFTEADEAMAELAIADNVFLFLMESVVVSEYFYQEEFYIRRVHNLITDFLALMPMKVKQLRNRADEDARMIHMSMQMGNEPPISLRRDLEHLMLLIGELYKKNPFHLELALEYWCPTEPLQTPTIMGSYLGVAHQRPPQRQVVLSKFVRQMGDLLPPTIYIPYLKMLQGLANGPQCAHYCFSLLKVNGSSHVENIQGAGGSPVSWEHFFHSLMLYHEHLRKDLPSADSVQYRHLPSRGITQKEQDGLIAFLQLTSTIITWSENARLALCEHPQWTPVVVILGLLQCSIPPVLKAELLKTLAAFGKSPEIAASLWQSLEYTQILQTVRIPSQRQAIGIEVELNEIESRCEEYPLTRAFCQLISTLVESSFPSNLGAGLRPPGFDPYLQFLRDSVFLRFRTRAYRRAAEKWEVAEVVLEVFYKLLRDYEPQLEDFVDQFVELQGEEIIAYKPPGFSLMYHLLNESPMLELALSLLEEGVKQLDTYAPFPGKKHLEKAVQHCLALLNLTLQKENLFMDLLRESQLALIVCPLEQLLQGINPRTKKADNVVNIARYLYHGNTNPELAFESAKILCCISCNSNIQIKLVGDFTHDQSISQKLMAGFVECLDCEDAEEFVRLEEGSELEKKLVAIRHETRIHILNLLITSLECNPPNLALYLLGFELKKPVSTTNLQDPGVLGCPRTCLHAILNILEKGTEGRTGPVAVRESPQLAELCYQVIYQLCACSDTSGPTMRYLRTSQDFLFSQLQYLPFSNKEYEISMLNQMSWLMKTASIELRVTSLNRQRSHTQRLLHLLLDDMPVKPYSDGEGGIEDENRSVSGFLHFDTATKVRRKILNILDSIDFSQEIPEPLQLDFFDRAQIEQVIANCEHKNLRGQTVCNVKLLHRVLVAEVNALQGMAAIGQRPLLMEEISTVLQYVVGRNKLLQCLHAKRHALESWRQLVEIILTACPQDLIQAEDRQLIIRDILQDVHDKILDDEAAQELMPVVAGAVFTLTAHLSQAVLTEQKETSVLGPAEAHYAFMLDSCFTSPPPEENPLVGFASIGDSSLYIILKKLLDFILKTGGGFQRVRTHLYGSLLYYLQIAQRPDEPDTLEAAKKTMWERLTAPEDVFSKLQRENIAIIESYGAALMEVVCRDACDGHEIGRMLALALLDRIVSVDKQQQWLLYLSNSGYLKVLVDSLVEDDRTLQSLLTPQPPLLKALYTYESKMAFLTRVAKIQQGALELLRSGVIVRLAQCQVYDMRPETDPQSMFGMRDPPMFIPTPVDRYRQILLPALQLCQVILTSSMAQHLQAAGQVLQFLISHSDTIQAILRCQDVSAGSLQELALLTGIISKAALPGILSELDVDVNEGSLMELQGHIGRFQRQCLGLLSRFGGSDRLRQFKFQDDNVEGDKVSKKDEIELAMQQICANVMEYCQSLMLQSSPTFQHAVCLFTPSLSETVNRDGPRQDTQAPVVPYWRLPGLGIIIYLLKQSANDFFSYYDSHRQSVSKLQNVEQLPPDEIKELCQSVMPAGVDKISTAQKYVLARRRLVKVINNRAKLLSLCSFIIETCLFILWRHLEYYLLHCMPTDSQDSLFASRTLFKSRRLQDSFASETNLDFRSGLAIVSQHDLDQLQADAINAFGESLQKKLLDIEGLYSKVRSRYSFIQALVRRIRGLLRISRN
UniProt P22234: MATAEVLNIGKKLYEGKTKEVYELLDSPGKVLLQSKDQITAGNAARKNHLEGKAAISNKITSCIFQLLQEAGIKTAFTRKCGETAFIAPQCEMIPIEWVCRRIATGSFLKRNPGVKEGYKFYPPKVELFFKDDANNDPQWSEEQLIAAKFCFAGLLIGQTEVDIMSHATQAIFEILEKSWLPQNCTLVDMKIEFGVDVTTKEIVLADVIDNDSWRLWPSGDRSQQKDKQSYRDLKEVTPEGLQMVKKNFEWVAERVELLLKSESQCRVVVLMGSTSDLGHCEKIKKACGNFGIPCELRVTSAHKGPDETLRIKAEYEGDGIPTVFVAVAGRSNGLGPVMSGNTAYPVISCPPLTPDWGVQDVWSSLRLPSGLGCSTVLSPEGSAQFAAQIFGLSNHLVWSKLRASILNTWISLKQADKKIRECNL

Assays:
Experiment in all cases: log2 fold change, soluble protein after heating vs DMSO (PISA); higher = thermal stabilisation; K562 lysate, 10 uM; active = over 0.2 and 3.5 SD of the protein, either way, in both replicates (recomputed)
[1] = compound: NCC(=O)Nc1ccc(-n2nc(C(F)(F)F)cc2-c2ccc3c(ccc4ccccc43)c2)cc1
How it was run: (§1)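 Pellets of K562 cells were dounce-homogenised in PBS pH 7.4 with 1 mM MgCl2, and the crude extract was held at 1 mg/mL protein for a 30 min treatment with 10 μM compound. Aliquots were heated for 3 min over 48°C-58°C and pooled before NP-40 was added to 0.5% at 4°C. The supernatant from 21,000xg for 90 min was quantified by TMTpro 16plex LC-MS/MS with channel sums equalised. Values are reported from duplicates as log-two fold change in thermal stability relative to solvent controls.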

vorinostat = compound: O=C(CCCCCCC(=O)Nc1ccccc1)NO [vorinostat]
How it was run: as §1

silmitasertib = compound: O=C(O)c1ccc2c(c1)nc(Nc1cccc(Cl)c1)c1ccncc12 [silmitasertib]
How it was run: as §1

[2] = compound: O=C1NC(=O)C(c2cnc3ccccn23)=C1c1cn2c3c(cc(F)cc13)CN(C(=O)N1CCCCC1)CC2
How it was run: as §1

entospletinib = compound: c1cn2cc(-c3ccc4cn[nH]c4c3)nc(Nc3ccc(N4CCOCC4)cc3)c2n1 [entospletinib]
How it was run: as §1

Target | log2 fold change [1] | log2 fold change (vorinostat) | log2 fold change (silmitasertib) | log2 fold change [2] | log2 fold change (entospletinib)
NXT1 (UniProt Q9UKK6) | inactive: 0.051 | inactive: -0.128 | inactive: -0.057 | – | –
OLA1 (UniProt Q9NTK5) | inactive: 0.03 | active: -0.31 | inactive: 0.041 | inactive: 0.004 | inactive: 0.043
PARK7 (UniProt Q99497) | inactive: 0.022 | inactive: 0.163 | inactive: -0.01 | inactive: 0.026 | inactive: 0.005
NUP85 (UniProt Q9BW27) | inactive: -0.03 | inactive: -0.075 | inactive: 0.019 | inactive: -0.006 | inactive: 0.014
OPLAH (UniProt O14841) | inactive: -0.035 | inactive: -0.216 | inactive: 0.014 | inactive: -0.089 | inactive: -0.023
OSBPL3 isoform 2 (UniProt Q9H4L5) | inactive: -0.087 | active: -0.36 | active: 0.402 | inactive: 0.062 | inactive: 0.052
PABPC4 isoform 3 (UniProt Q13310) | inactive: 0.009 | inactive: 0.002 | inactive: -0.012 | inactive: 0.011 | inactive: -0.002
NUP205 (UniProt Q92621) | inactive: 0.003 | active: -0.335 | inactive: 0.037 | inactive: 0.001 | inactive: 0.005
PAICS (UniProt P22234) | inactive: 0.001 | inactive: 0.141 | inactive: 0.013 | inactive: 0.004 | inactive: 0.016
